What all share (assay): ITC
A general note: In ITC the heat of successive injections is recorded.

Protein sequences, listed by entry. Tags and fused reporters are not part of them. Residues count along the entry.
UniProt P09651, 1-105: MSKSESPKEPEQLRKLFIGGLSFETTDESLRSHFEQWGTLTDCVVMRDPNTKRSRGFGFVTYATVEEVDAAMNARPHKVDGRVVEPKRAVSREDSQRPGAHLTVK
UniProt P09651, 91-196: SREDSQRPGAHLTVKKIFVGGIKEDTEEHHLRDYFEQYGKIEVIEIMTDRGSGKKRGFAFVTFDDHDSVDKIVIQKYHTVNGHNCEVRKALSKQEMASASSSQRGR
UniProt P09651, 1-196: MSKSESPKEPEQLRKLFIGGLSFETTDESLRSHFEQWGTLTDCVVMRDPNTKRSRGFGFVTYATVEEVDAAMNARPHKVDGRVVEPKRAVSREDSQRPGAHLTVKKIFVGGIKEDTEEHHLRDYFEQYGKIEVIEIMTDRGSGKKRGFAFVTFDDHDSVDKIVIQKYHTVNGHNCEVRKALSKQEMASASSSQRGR

Series [1] concerns the target hnRNP A1 RRM1 (UniProt P09651). The conditions noted are these: recombinant protein, residues 1-105, protein details: 2xHis6-lipoyl tag removed by TEV; for Kd: 25 C, single-stranded DNA.
Series [2] has as its target hnRNP A1 RRM2 (UniProt P09651). Particulars: recombinant protein, residues 91-196, protein details: 2xHis6-lipoyl tag removed by TEV; for Kd: 25 C, single-stranded DNA.
In series [3] the target is hnRNP A1 tandem RRMs (UP1-like) (UniProt P09651). Particulars: recombinant protein, residues 1-196, protein details: 2xHis6-lipoyl tag removed by TEV.
Setting [4] is: no Kd, not fitted by simple one- or two-site models.

Construct, isoform or probe ends are uncertain for at least one entry. At least one verdict was read from the data and is not stated in words by the source.

As for CAGGGAT [first ESS motif 7-mer], the Kd – broadly, the free concentration of one partner at which half of the binding sites on the other are occupied at equilibrium, for simple one-to-one binding – was determined as 0.85 µM in series [1] and 0.58 µM in series [2].
“CAGGGATTTGGGGAC [CFTR exon 9 ESS 15-mer ssDNA]”: the Kd amounted to 5.8 µM in series [1] (N=0.496); 6.8 µM in series [2] (N=0.452); 0.233 µM in series [3] (25 C, single-stranded DNA).
“CAGGGAUUUGGGGAC [CFTR exon 9 ESS 15-mer ssRNA (ITC)]”: the binding result in series [1] (setting [4]), in series [2] (setting [4]) and in series [3] (setting [4]) was “binds” throughout.
In the case of TGGGGAAT [second ESS motif 8-mer], the equilibrium dissociation constant (Kd) in series [1] is 7.25 µM; in series [2] it was 3.05 µM.

Values taken from paper PMC12171016.
